In doi:10.1101/2020.12.21.423430:
Results are given in words; binding and its absence hold for the method and conditions named. For some assays here: In cells and extracts the contact can be indirect. Some binding calls cover weakened binding; strength is not graded here. For some assays here: Tags and fused reporters may be left off the sequences shown.

Chains of the proteins cited; added tags and fusions are not shown.
UniProt P29514, whole entry: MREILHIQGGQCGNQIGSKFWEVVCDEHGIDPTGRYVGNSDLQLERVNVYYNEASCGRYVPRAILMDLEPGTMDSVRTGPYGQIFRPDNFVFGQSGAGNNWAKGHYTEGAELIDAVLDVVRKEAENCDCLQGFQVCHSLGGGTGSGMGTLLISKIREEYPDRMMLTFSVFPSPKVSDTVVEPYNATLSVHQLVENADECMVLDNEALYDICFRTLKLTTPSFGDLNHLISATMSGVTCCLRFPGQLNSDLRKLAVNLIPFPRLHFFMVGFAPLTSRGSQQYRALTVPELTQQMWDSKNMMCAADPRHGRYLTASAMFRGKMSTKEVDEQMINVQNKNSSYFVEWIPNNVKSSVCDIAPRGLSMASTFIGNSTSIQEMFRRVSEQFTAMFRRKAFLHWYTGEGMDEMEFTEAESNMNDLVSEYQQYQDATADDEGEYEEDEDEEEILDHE

Tests used:
[1] = biological target: TUB6 cloned into the pGBKT7 vector (yeast two-hybrid) (Arabidopsis thaliana) (UniProt P29514); experiment: two-hybrid
[2] = biological target: TUB6 in the pBiFCt-2in1-NC construct (BiFC) (Arabidopsis thaliana) (UniProt P29514); experiment: split reporter

Row | Binder | binding [1] | binding [2]
1 | TTL3 fused in the pGADT7 vector (yeast two-hybrid) (protein, UniProt Q9SIN1 1-691) MSHSRRLSLEPAIDSITGRFRDLQRNDDDVNKPDFRELDLGSPVSTLMPRGSASSSAAATPTSSSGSSGSASGKPSVSSQMAKRLDDAYKSHSGELSSPGSGMPTTTRILKPGHRRSSSTGTPLIFSGSSFTSATSHTSPQGGGSGATSAVSPNTGVLPAGNICPSGRILKTGMASRTSSRTETLCTGTGNYGHGNVVRSGGGGGTSGKAVRVAENGENPEELKRMGNDMYRRGSFSEALSLYDRAILISPGNAAYRSNRAAALTALRRLGEAVKECLEAVRIDPSYSRAHQRLASLYLRLGEAENARRHICFSGQCPDQADLQRLQTLEKHLRRCWEARKIGDWKTAIKETDAAIANGADSSPQLVACKAEAFLRLKQIEDSDFCVSCIPRLDHHYHSQPQVKLFGMVVEAYVLCIQAQVDMALGRFENAVVKAERAAMLDQTNPEVVSVLNNVKMVVRARTRGNELFSSGRFSEACVAYGDGLKQDDSNSVLYCNRAACWYKLGLWEKSVEDCNHALKSQPSYIKALLRRAASYGKLGRWEDAVKDYEFLRRELPGDSEVAESLERAKTVLMNRSQESKSLGFNNEVEAVSTLDKFKKSVALPGVSVFHFKSSSNRQCEEISPFINTLCLRYPLVHFFMVDVEESMALAKAESIRKVPTFKMYKNGDKVKEMVCPSHQFLEDSIKHFLL | binds | 
2 | TTL3 in the pBiFCt-2in1-NC construct (BiFC) (protein, UniProt Q9SIN1 1-691) MSHSRRLSLEPAIDSITGRFRDLQRNDDDVNKPDFRELDLGSPVSTLMPRGSASSSAAATPTSSSGSSGSASGKPSVSSQMAKRLDDAYKSHSGELSSPGSGMPTTTRILKPGHRRSSSTGTPLIFSGSSFTSATSHTSPQGGGSGATSAVSPNTGVLPAGNICPSGRILKTGMASRTSSRTETLCTGTGNYGHGNVVRSGGGGGTSGKAVRVAENGENPEELKRMGNDMYRRGSFSEALSLYDRAILISPGNAAYRSNRAAALTALRRLGEAVKECLEAVRIDPSYSRAHQRLASLYLRLGEAENARRHICFSGQCPDQADLQRLQTLEKHLRRCWEARKIGDWKTAIKETDAAIANGADSSPQLVACKAEAFLRLKQIEDSDFCVSCIPRLDHHYHSQPQVKLFGMVVEAYVLCIQAQVDMALGRFENAVVKAERAAMLDQTNPEVVSVLNNVKMVVRARTRGNELFSSGRFSEACVAYGDGLKQDDSNSVLYCNRAACWYKLGLWEKSVEDCNHALKSQPSYIKALLRRAASYGKLGRWEDAVKDYEFLRRELPGDSEVAESLERAKTVLMNRSQESKSLGFNNEVEAVSTLDKFKKSVALPGVSVFHFKSSSNRQCEEISPFINTLCLRYPLVHFFMVDVEESMALAKAESIRKVPTFKMYKNGDKVKEMVCPSHQFLEDSIKHFLL |  | binds
